Test results as given in paper PMC7586746, “A putative nuclear copper chaperone promotes plant immunity in Arabidopsis” (Journal of Experimental Botany, 2020).
These are yes or no findings as the source states them, for the method shown. Binding can be weak; no strength is given. For part of these data: Sequences can lack the tags named with a protein. For part of these data: Binding seen in cells or lysates may run through a third protein.

Amino acid sequences for entries named in this document (tags omitted). A change or cut given only in a name is not applied to a line headed by its entry.
UniProt A0A7G7X469: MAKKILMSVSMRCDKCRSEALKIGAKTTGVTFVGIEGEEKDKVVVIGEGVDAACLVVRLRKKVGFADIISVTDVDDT

Assays:
GST–TGA2 = target: T1, GST–TGA2 (UniProt P43273); assay: pull-down; 2 μg GST bait and 2 μg His prey with GST beads in 500 μl of 50 mM Tris–HCl pH 6.8, 150 mM NaCl, 0.2% glycerol, 5 mM DTT, 0.6% Triton X-100, 4 °C, 6 h; blots with anti-His and anti-GST; both purified
T1 sequence: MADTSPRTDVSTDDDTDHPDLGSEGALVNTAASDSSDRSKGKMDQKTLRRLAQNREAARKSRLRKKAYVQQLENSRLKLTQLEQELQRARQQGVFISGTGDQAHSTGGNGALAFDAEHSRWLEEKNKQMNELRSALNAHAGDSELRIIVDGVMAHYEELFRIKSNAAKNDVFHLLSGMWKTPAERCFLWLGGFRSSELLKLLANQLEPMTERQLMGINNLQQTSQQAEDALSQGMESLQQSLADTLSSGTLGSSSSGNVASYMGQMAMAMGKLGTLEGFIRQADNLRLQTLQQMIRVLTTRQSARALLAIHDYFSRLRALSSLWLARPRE

GST–NPR1 = target: T2, GST–NPR1 (UniProt P93002 1-593); assay: pull-down; GST pull-down in vitro of His-CCP and His-TGA2 added together, in the presence of Cu^2+ (Supplementary Fig. S13); both purified
T2 construct: NPR1 (non-expressor of pathogenesis-related gene 1), cloned into pGEX-4T-1; source: E. coli BL21, purified
T2 sequence (looked up): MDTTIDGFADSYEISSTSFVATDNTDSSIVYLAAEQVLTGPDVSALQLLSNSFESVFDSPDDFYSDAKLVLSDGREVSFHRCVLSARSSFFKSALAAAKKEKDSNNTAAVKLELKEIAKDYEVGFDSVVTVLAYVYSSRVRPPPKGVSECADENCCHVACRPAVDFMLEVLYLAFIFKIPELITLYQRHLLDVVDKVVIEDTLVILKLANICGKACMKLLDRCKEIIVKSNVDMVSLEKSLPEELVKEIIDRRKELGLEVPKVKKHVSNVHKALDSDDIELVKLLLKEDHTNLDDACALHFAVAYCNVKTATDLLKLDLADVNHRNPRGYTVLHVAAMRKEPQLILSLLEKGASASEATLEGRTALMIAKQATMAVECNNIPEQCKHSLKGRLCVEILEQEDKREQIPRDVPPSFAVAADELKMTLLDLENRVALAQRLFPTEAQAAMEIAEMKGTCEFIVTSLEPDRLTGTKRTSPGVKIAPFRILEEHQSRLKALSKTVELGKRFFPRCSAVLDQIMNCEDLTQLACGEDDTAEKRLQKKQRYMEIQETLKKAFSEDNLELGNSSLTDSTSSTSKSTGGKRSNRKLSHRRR

[1] = target: T3, TGA2 N-terminal domain fused with the C-terminal half of YFP (UniProt P43273); assay: split reporter; BiFC: Y^N and Y^C fusions (pSPYNE-35S / pSPYCE-35S) co-expressed with TBSV P19 by agroinfiltration in N. benthamiana leaves, YFP read by confocal microscopy at 2 dpi; some leaves treated with buffer or SA
T3 sequence: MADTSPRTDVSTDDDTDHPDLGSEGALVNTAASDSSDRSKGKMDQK

[2] = target: T4, TGA2 fused with the C-terminal half of YFP (UniProt P43273); assay: as above
T4 sequence: T1 sequence

TGA2-Flag = target: T5, TGA2-Flag (UniProt P43273); assay: co-IP; TGA2-Flag co-expressed with GFP fusions in N. benthamiana leaves, 2 dpi; anti-Flag M2 affinity gel, 4 °C, 5 h; 0.1% Triton X-100, 10% glycerol, 25 mM Tris–HCl pH 7.5, 200 mM NaCl, 1 mM EDTA, 10 mM DTT; blots with anti-Flag and anti-GFP
T5 sequence: T1 sequence

Question: His-CCP (from UniProt A0A7G7X469) was tested. Which binding (GST–TGA2) did it give?
Answer: Its binding is “binds”.

Question: And the binding (GST–NPR1)?
Answer: Its binding is “binds”.

Question: For “CCP (copper chaperone induced by pathogens) fused to a half of sYFP for BiFC (from UniProt A0A7G7X469)”, which binding [1] is on record?
Answer: The binding was “binds”.

Question: What about the binding [2] of the same substance?
Answer: Its binding is “binds”.

Question: CCP–GFP (Arabidopsis thaliana) was tested. Which binding (TGA2-Flag) did it give?
Answer: Its binding is “binds”.

Question: For “CCP^mCBS fused to a half of sYFP for BiFC (Arabidopsis thaliana)”, which binding [2] is on record?
Answer: Its binding is “no binding”.
